Results: PMC8474885

Target: HA-tagged p113 (human)
Experiment: co-IP; two-step (secondary) immunoprecipitation from SH-SY5Y cells stably transfected with HA-tagged p113, Flag-tagged ZRF1 and His-tagged BRD4

- binding: binds
B1: Flag-tagged ZRF1 (protein, UniProt Q99543 1-621)
chain: MLLLPSAADGRGTAITHALTSASTLCQVEPVGRWFEAFVKRRNRNASASFQELEDKKELSEESEDEELQLEEFPMLKTLDPKDWKNQDHYAVLGLGHVRYKATQRQIKAAHKAMVLKHHPDKRKAAGEPIKEGDNDYFTCITKAYEMLSDPVKRRAFNSVDPTFDNSVPSKSEAKDNFFEVFTPVFERNSRWSNKKNVPKLGDMNSSFEDVDIFYSFWYNFDSWREFSYLDEEEKEKAECRDERRWIEKQNRATRAQRKKEEMNRIRTLVDNAYSCDPRIKKFKEEEKAKKEAEKKAKAEAKRKEQEAKEKQRQAELEAARLAKEKEEEEVRQQALLAKKEKDIQKKAIKKERQKLRNSCKTWNHFSDNEAERVKMMEEVEKLCDRLELASLQCLNETLTSCTKEVGKAALEKQIEEINEQIRKEKEEAEARMRQASKNTEKSTGGGGNGSKNWSEDDLQLLIKAVNLFPAGTNSRWEVIANYMNIHSSSGVKRTAKDVIGKAKSLQKLDPHQKDDINKKAFDKFKKEHGVVPQADNATPSERFEGPYTDFTPWTTEEQKLLEQALKTYPVNTPERWEKIAEAVPGRTKKDCMKRYKELVEMVKAKKAAQEQVLNASRAKK

Results are given in words; binding and its absence hold for the method and conditions named. Binding seen in cells or lysates may run through a third protein. Binding calls can cover weak binding; strength is not graded here. Tags and fused reporters may be left off the sequences shown.
